# Measured values as given in PubChem BioAssay AID330 (DTP/NCI, 2004).
# The list is a part of this screen's results and no random one: it is rich in T/C values a quarter to a half above the control, in often repeated tests (any T/C) and in doses without a T/C. Further doses and runs are listed elsewhere. T/C gives the treated animals as a percentage of the vehicle group. Some entries give survivors of the animals treated and no T/C: the source files T/C as zero there, which appears to mark a toxic dose or a test without result, not a measured value. Some doses without a T/C left all or most animals alive at the check, yet need not have been tolerated: the source hardly ever lists a survival T/C far under the control, and the zero likely stands for such cases as well. Survivors were counted at the toxicity check, usually on the fifth day, unless a day is given; later deaths do not show. Schedules are NCI's codes, read here as Q, the interval in days (D) or hours (H), X, the number of doses. Signs of the kind (2×) count equal records among those shown. Some entries hold several experiments; the values are given in rising order. For survival time, this PubChem deposit counts one and a half times the control or more as active, and values a quarter to a half above the control carry no call in these data; other NCI protocols may use other cut-offs. Some T/C values carry the count of animals alive at the toxicity check (mostly the fifth day); without a count, all were alive then.
# Test system: P388 leukemia ip, CD2F1 mice, survival T/C
# Assay: NCI In Vivo Anticancer Drug Screen. Data for tumor model P388 Leukemia (intraperitoneal) in CD2F1 (CDF1) mice
# Conditions: T/C endpoint: median survival time, higher T/C = longer survival
# [1] = dose: 200.0 mg/kg/injection, schedule: Q01DX009 (ip), vehicle: Klucel (hydroxypropylcellulose) (HPC)
# [2] = dose: 100.0 mg/kg/injection, schedule: Q01DX005 (ip), vehicle: saline
# [3] = dose: 200.0 mg/kg/injection, schedule: Q01DX005 (ip), vehicle: saline
# [4] = dose: 100.0 mg/kg/injection, schedule: Q01DX005 (ip), vehicle: Klucel (hydroxypropylcellulose) (HPC)
# [5] = dose: 50.0 mg/kg/injection, schedule: Q01DX005 (ip), vehicle: saline with Tween-80
# [6] = dose: 200.0 mg/kg/injection, schedule: Q01DX005 (ip), vehicle: saline with Tween-80
# [7] = dose: 60.0 mg/kg/injection, schedule: Q01DX005 (ip), vehicle: saline with Tween-80
# [8] = dose: 120.0 mg/kg/injection, schedule: Q01DX005 (ip), vehicle: saline with Tween-80
# [9] = dose: 100.0 mg/kg/injection, schedule: Q01DX009 (ip), vehicle: Klucel (hydroxypropylcellulose) (HPC)
# [10] = dose: 240.0 mg/kg/injection, schedule: Q01DX005 (ip), vehicle: saline with Tween-80
# [11] = dose: 100.0 mg/kg/injection, schedule: Q01DX001 (ip), vehicle: saline with Tween-80
# [12] = dose: 200.0 mg/kg/injection, schedule: Q01DX001 (ip), vehicle: saline with Tween-80
structure (smiles),measurement,setting,value
O=[N+]([O-])c1cc2[nH]cnc2c([N+](=O)[O-])c1N1CCOCC1,survivor count,"dose: 100.0 mg/kg/injection, schedule: Q04DX003 (ip), vehicle: saline with Tween-80",3 of 6
same,survivor count,"dose: 200.0 mg/kg/injection, schedule: Q04DX003 (ip), vehicle: saline with Tween-80",2 of 6
same,survivor count,"dose: 400.0 mg/kg/injection, schedule: Q04DX003 (ip), vehicle: saline with Tween-80",0 of 6
O=C(Nc1ccc(F)cc1F)Oc1cccc2cccnc12,T/C,[1],129 % of control
CCCCCCCCCCCCCCCC(=O)NC1CC(OC2CC(O)(C(C)=O)Cc3c(O)c4c(c(O)c32)C(=O)c2c(OC)cccc2C4=O)OC(C)C1O (stereo not given),T/C,"dose: 6.0 mg/kg/injection, schedule: Q01DX009 (ip), vehicle: other",125 % of control
same,T/C,"dose: 12.0 mg/kg/injection, schedule: Q01DX009 (ip), vehicle: other",125 % of control
COc1ccc(/C=C/C(=O)C(CN(C)C)CN(C)C)cc1,survivor count,"dose: 6.25 mg/kg/injection, schedule: Q01DX005 (ip), vehicle: saline",5 of 6
same,survivor count,"dose: 12.5 mg/kg/injection, schedule: Q01DX005 (ip), vehicle: saline",5 of 6
same,survivor count,"dose: 25.0 mg/kg/injection, schedule: Q01DX005 (ip), vehicle: saline",0 of 6
same,survivor count,"dose: 50.0 mg/kg/injection, schedule: Q01DX005 (ip), vehicle: saline",0 of 6
same,survivor count,[2],0 of 6
same,survivor count,[3],0 of 6
O=c1nc2n(CCO)c3ccccc3cc-2c(=O)[nH]1,survivor count,"dose: 240.0 mg/kg/injection, schedule: Q01DX005 (ip), vehicle: saline",6 of 6
CN(C)CCC=C1c2ccccc2CCc2ccccc21,survivor count,[2],0 of 6
same,survivor count,[3],0 of 6
CCCCCCCCCCCCCCCCCCCCC(C(=O)OCC)S(=O)(=O)O (stereo not given),survivor count,[1],3 of 6
CC1OC(O[C@H]2CC[C@]3(C=O)[C@H]4CC[C@]5(C)[C@@H](C6=COC(=O)C6)CC[C@]5(O)[C@@H]4CC[C@]3(O)C2)C(O)C(O)C1OC1OC(CO)C(O)C(O)C1O (stereo not given in full),survivor count,[4],3 of 6
same,survivor count,"dose: 200.0 mg/kg/injection, schedule: Q01DX005 (ip), vehicle: Klucel (hydroxypropylcellulose) (HPC)",1 of 6
[Cl][Sn]1([Cl])[CH2]CCCCCCCCCC[CH2][Sn]([Cl])([Cl])[CH2]CCCCCCCCCC[CH2]1,survivor count,[5],6 of 6
same,survivor count,[6],6 of 6
O=C(Nc1cc(Cl)ccc1Cl)Nc1ccc(Cl)cc1C(=O)c1ccccc1,survivor count,[7],6 of 6
same,survivor count,[8],6 of 6
CC1CN=C(CCc2ccc(NC(=O)c3ccc(C(=O)Nc4ccc(CCC5=NCC(C)N5)cc4)cc3)cc2)N1 (stereo not given),T/C,[4],125 % of control
same,survivor count,"dose: 400.0 mg/kg/injection, schedule: Q01DX005 (ip), vehicle: Klucel (hydroxypropylcellulose) (HPC)",4 of 6
S=C(Nc1ccc(Cl)cc1)Nc1ncccn1,survivor count,[9],6 of 6
same,survivor count,[1],6 of 6
C=C(CN(C)C)C(=O)c1ccc(OC2OC(COC(C)=O)C(OC(C)=O)C(OC(C)=O)C2OC(C)=O)cc1 (stereo not given),survivor count,"dose: 25.0 mg/kg/injection, schedule: Q01DX005 (ip), vehicle: saline with Tween-80",1 of 6
same,survivor count,[5],0 of 6
same,survivor count,"dose: 100.0 mg/kg/injection, schedule: Q01DX005 (ip), vehicle: saline with Tween-80",0 of 6
same,survivor count,[6],0 of 6
O=C1C(c2ccccc2)=C(c2ccc(Br)cc2)C2(c3ccc(Br)cc3)CC12c1ccccc1 (stereo not given),survivor count,"dose: 200.0 mg/kg/injection, schedule: Q01DX005 (ip), vehicle: Klucel + Tween-80",6 of 6
OCC1OC([Se])C(O)C(O)C1O.[CH3][Sb][CH3] (stereo not given),survivor count,[10],0 of 6
CN(C)c1ccc(/C=N/NC(=O)COc2ccccc2)cc1,survivor count,[7],6 of 6
same,survivor count,[8],6 of 6
same,survivor count,[10],6 of 6
Clc1cccc(N=Cc2ccc(C=Nc3cccc(Cl)c3)cc2)c1,survivor count,[1],6 of 6
CC(=O)[O][Sn]([c]1ccccc1)([c]1ccccc1)[c]1ccccc1,survivor count,"dose: 1.0 mg/kg/injection, schedule: Q04DX003 (ip), vehicle: saline with Tween-80",3 of 6
same,survivor count,"dose: 2.5 mg/kg/injection, schedule: Q04DX003 (ip), vehicle: saline with Tween-80",1 of 6
same,survivor count,"dose: 5.0 mg/kg/injection, schedule: Q04DX003 (ip), vehicle: saline with Tween-80",0 of 6
same,survivor count,"dose: 10.0 mg/kg/injection, schedule: Q04DX003 (ip), vehicle: saline with Tween-80",0 of 6
NC(Cc1cccc(NP(=S)(N2CC2)N2CC2)c1)C(=O)O (stereo not given),T/C,"dose: 50.0 mg/kg/injection, schedule: Q04DX003 (ip), vehicle: saline",131 % of control
same,survivor count,"dose: 600.0 mg/kg/injection, schedule: Q04DX003 (ip), vehicle: saline",6 of 6
CCOC(=O)N(CCCl)N=O,T/C,"dose: 1.25 mg/kg/injection, schedule: Q01DX009 (ip), vehicle: saline with Tween-80",125 and 129 % of control
same,T/C,"dose: 2.5 mg/kg/injection, schedule: Q01DX009 (ip), vehicle: saline with Tween-80",127 % of control
same,T/C,"dose: 5.0 mg/kg/injection, schedule: Q01DX001 (ip), vehicle: saline with Tween-80",128 % of control
same,survivor count,"dose: 5.0 mg/kg/injection, schedule: Q01DX009 (ip), vehicle: saline with Tween-80",6 of 6
same,survivor count,"dose: 10.0 mg/kg/injection, schedule: Q01DX001 (ip), vehicle: saline with Tween-80",6 of 6
same,survivor count,"dose: 10.0 mg/kg/injection, schedule: Q01DX009 (ip), vehicle: saline with Tween-80",6 of 6
same,survivor count,"dose: 20.0 mg/kg/injection, schedule: Q01DX001 (ip), vehicle: saline with Tween-80",1 of 6
same,survivor count,"dose: 40.0 mg/kg/injection, schedule: Q01DX001 (ip), vehicle: saline with Tween-80",0 of 6
Cc1ccc(-c2n[nH]c(=O)c(C#N)c2-c2ccc(C)cc2)cc1,survivor count,"dose: 200.0 mg/kg/injection, schedule: Q04DX002 (ip), vehicle: saline with Tween-80",6 of 6
C/C(=C\c1ccc(OCC(=O)O)c(Cl)c1Cl)[N+](=O)[O-],T/C,"dose: 50.0 mg/kg/injection, schedule: Q01DX001 (ip), vehicle: saline with Tween-80","92 [4 of 6 alive], 93, 98 [5 of 6 alive], 106 % of control"
same,T/C,[11],127 % of control
same,survivor count,[11],0 of 6 and 2 of 6
same,T/C,[12],131 % of control [5 of 6 alive]
same,survivor count,[12],0 of 6
same,survivor count,"dose: 400.0 mg/kg/injection, schedule: Q01DX001 (ip), vehicle: saline with Tween-80",0 of 6 (2×)
COC(=O)c1ccc(C(=O)OC)c2nc3ccccc3nc12,survivor count,"dose: 240.0 mg/kg/injection, schedule: Q01DX005 (ip), vehicle: Klucel (hydroxypropylcellulose) (HPC)",4 of 6
COc1cc(C2c3cc4c(cc3C(=O)C(C)C2C)OCO4)ccc1O (stereo not given),survivor count,"dose: 300.0 mg/kg/injection, schedule: Q01DX005 (ip), vehicle: Klucel (hydroxypropylcellulose) (HPC)",6 of 6
CC(=O)C1CC[C@@]2(C)C(CC[C@H]3[C@@H]4CCC[C@H]([C@H](C)O)[C@@]4(C)CC[C@@H]32)C1 (stereo not given in full),survivor count,[9],6 of 6
